Some results were stated once for a whole list of compounds, not compound by compound. At least one compound was matched to its structure with a doubt left.
Tested on: Ovarian cancer cells (A2780)
Assay: Mitochondrial swelling (JC1 dye)
Format: cell-based, human
Conditions: maintained for 24 hours

| SMILES | Time to swelling of mitochondria in cancer cells [min] |
| --- | --- |
| CC1(C)CC(C)(C)c2cc(NC(=S)Nc3ccc([N+](=O)[O-])cc3)ccc2S1 [SHetA2] | ≤ 30 |
| CCOC(=O)c1ccc(NC(=O)Nc2ccc3c(c2)C(C)(C)CC(C)(C)S3)cc1 [SHetA4] | ≤ 30 |
